Experimental data: the supplement of paper PMC10849652
The list shows a part of the results.

Amino acid sequences for entries named in this document (tags omitted). A change or cut given only in a name is not applied to a line headed by its entry.
UniProt P42025, whole entry, looked up: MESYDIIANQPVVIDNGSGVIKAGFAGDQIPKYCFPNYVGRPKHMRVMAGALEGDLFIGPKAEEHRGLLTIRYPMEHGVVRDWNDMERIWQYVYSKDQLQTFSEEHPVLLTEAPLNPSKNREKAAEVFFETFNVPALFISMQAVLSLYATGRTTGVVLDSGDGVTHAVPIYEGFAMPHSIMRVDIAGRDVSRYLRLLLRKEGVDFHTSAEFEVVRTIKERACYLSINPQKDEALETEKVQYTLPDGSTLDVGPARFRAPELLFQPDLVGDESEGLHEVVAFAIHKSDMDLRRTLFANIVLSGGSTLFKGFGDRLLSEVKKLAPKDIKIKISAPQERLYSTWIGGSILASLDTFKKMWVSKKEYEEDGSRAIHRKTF
UniProt Q5JTZ9, whole entry, looked up: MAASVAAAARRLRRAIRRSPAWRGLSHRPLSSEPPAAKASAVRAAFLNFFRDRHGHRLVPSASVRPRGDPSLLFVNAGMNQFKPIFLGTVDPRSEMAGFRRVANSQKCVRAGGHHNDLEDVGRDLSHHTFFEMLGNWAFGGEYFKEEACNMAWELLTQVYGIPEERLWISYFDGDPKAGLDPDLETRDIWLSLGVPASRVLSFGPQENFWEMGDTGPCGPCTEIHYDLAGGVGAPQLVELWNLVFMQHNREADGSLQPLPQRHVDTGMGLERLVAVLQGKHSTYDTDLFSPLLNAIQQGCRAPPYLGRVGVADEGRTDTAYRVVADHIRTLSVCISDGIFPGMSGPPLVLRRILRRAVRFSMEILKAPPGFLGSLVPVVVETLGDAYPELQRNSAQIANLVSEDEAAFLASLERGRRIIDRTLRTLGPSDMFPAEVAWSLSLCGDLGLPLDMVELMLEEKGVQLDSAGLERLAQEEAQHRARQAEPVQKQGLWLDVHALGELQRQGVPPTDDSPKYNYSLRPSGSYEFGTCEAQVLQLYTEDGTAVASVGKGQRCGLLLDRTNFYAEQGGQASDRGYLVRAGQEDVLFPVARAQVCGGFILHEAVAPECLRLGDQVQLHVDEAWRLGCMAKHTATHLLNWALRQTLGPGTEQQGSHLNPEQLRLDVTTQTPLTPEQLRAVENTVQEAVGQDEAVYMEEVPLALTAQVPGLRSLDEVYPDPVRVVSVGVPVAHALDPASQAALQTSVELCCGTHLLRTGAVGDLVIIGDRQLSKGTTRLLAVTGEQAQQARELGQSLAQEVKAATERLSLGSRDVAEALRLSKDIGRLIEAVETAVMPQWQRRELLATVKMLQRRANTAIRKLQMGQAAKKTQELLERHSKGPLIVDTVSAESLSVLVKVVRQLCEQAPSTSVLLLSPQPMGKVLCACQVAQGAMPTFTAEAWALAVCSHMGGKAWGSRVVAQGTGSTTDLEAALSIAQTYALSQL
UniProt Q9ULC5: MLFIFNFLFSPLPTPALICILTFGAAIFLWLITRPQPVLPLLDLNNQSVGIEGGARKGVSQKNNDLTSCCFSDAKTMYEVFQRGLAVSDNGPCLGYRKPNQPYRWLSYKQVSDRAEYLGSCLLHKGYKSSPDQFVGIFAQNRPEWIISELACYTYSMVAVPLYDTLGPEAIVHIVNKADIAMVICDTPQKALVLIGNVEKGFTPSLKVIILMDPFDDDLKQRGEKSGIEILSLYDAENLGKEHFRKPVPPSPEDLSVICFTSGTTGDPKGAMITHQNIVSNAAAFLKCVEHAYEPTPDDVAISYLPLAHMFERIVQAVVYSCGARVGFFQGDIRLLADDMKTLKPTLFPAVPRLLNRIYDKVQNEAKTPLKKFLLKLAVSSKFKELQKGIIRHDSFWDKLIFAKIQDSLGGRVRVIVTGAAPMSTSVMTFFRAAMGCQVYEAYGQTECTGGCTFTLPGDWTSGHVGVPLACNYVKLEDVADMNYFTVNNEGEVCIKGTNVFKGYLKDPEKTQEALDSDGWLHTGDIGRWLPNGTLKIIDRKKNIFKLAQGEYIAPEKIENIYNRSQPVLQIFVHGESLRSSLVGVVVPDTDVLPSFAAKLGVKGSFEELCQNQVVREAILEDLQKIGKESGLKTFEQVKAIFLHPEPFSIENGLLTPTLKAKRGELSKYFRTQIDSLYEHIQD
UniProt Q9NUB1: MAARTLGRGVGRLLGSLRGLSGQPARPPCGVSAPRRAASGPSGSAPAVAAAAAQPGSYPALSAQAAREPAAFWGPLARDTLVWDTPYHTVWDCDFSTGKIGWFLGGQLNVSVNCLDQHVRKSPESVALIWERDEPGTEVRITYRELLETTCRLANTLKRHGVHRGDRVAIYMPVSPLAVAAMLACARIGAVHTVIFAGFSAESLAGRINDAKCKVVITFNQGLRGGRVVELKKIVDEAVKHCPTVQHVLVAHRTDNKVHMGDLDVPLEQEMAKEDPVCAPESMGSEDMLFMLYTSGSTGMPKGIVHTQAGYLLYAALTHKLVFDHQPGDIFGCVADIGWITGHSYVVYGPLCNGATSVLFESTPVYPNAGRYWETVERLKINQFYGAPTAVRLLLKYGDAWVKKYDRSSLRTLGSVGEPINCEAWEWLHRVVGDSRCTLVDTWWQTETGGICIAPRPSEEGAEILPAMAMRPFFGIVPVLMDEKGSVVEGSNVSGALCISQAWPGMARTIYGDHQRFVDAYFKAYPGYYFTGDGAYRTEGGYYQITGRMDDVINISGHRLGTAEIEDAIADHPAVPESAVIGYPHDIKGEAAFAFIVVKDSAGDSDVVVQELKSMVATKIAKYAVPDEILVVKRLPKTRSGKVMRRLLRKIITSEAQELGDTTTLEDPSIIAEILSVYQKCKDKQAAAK
UniProt Q6UWZ7: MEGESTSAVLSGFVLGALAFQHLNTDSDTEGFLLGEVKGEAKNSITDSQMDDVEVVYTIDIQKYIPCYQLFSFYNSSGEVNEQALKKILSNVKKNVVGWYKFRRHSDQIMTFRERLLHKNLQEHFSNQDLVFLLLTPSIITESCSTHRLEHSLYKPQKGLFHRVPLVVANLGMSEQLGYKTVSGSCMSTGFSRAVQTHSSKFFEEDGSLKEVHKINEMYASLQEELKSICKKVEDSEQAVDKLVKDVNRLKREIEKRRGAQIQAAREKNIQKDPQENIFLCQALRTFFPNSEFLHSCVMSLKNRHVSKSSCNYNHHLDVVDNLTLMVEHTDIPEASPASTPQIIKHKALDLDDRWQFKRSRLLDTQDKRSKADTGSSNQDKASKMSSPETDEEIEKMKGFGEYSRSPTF
UniProt Q15057: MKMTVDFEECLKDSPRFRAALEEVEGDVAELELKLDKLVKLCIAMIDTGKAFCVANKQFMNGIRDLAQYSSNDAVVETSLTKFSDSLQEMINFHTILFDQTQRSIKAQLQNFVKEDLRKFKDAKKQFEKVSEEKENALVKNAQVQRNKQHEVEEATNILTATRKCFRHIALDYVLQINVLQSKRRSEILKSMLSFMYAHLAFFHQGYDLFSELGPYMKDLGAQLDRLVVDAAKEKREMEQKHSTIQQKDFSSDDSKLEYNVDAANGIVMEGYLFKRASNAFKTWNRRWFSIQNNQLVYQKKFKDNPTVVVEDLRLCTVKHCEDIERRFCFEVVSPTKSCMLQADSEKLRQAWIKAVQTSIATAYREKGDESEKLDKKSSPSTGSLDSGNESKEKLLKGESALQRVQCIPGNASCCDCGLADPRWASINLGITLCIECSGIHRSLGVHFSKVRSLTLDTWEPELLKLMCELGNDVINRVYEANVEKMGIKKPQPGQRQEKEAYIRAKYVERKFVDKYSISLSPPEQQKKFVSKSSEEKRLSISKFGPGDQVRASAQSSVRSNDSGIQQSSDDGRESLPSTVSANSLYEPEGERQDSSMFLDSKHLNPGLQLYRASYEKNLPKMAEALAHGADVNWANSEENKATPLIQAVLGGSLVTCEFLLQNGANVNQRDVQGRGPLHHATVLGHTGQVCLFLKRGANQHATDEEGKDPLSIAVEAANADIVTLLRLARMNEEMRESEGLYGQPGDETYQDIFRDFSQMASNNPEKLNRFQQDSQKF
UniProt Q13685: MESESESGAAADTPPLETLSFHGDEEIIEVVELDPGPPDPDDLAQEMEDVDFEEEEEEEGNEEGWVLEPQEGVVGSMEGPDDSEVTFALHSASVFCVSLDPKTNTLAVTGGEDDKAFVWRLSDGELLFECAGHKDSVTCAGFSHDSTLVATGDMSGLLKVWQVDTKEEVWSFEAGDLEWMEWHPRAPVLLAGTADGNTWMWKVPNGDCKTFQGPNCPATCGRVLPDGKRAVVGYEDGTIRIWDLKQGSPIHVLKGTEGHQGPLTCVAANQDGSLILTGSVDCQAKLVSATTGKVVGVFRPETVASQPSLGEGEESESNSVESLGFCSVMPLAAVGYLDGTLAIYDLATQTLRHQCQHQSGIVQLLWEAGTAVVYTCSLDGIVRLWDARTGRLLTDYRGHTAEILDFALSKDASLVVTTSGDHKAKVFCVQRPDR
UniProt P49748: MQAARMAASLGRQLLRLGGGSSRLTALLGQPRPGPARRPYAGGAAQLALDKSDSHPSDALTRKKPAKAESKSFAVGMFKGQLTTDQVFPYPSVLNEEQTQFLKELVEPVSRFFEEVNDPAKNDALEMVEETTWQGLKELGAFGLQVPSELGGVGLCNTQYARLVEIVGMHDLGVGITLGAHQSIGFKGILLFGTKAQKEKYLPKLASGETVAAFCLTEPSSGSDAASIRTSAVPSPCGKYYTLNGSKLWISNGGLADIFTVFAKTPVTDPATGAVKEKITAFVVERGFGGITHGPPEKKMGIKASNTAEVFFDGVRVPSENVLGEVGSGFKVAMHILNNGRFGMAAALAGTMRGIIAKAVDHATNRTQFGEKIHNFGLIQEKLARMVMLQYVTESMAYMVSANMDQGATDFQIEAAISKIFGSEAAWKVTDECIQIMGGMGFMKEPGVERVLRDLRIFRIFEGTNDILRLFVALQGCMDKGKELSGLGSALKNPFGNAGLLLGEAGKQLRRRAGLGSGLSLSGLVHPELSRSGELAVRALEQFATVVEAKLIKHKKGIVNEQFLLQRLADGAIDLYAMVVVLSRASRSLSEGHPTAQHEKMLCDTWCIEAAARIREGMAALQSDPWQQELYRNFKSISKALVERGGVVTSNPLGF
UniProt Q9Y312: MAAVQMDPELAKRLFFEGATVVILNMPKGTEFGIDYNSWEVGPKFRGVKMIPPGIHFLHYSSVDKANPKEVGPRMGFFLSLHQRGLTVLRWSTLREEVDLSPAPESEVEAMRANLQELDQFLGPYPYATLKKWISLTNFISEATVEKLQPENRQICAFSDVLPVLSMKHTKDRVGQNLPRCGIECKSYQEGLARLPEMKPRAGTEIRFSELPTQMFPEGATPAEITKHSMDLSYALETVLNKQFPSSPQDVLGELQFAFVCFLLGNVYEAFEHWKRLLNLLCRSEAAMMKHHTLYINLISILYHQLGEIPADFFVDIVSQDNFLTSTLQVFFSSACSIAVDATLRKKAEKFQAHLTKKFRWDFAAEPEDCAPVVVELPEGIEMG
UniProt Q9BTE6: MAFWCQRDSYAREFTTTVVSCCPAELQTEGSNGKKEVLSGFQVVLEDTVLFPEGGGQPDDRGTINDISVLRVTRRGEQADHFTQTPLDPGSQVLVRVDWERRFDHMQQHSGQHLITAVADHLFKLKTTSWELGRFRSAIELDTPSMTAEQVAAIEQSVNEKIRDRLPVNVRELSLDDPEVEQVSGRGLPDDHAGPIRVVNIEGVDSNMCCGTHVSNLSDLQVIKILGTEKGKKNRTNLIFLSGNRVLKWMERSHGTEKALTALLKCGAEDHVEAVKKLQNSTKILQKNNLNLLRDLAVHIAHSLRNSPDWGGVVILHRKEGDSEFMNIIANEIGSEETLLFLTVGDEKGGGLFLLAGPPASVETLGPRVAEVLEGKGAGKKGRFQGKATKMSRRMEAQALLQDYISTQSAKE
UniProt Q8NFV4: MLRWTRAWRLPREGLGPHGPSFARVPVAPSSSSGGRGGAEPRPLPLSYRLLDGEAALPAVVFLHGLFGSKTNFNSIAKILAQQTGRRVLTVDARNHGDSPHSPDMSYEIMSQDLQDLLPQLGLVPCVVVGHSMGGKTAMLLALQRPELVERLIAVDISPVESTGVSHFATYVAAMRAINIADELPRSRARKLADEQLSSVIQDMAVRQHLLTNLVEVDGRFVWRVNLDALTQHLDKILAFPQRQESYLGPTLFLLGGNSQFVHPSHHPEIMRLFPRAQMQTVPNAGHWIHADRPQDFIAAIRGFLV
UniProt Q9BV23: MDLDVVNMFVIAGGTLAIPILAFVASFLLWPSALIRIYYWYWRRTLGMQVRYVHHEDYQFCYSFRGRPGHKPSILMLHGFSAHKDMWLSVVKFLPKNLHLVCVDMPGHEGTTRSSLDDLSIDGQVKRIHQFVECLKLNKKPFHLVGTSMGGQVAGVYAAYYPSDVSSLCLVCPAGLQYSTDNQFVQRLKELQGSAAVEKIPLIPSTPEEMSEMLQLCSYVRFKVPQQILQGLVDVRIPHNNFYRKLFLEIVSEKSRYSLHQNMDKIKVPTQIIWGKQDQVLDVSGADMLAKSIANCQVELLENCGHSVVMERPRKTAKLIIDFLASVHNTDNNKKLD
UniProt P14621: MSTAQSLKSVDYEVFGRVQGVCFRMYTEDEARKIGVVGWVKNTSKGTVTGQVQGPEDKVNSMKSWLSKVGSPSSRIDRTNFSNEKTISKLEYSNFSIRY

compound: CN1CCC(CNc2ccc3ncc(-c4cccc(OC(F)(F)F)c4)n3n2)CC1; assay: log2 fold change, soluble protein after heating vs DMSO (PISA); higher = thermal stabilisation; K562 cells, 10 uM, 30 min; active = over 0.2 and 3.5 SD of the protein, either way, in both replicates (recomputed)
In short: (§1)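 K562 cells at 2×10^6 cells/mL were given 10 μM compound for 30 min. Aliquots then went through 3 min of heating across 48°C-58°C, were pooled, and were extracted in PBS with 0.5% NP-40 at 4°C, and the supernatant after 21,000xg for 90 min was quantified by TMTpro 16plex LC-MS/MS with channel sums equalised. Thermal stability relative to control samples, from duplicates, is given as log2 fold change.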

| Target | log2 fold change |
| --- | --- |
| ACTG1 (UniProt K7EM38) | inactive: -0.302 |
| ACTR1B (UniProt P42025) | inactive: 0.306 |
| AARS2 (UniProt Q5JTZ9) | active: -0.312 |
| ACSL5 isoform 3 (UniProt Q9ULC5) | active: -0.361 |
| ACSS1 (UniProt Q9NUB1) | inactive: 0.092 |
| ABL1 isoform 2 (UniProt P00519) | inactive: -0.035 |
| ABRAXAS1 (UniProt Q6UWZ7) | inactive: 0.198 |
| ACAP2 (UniProt Q15057) | inactive: 0.063 |

compound: CN1CCN(CCOc2cc(OC3CCOCC3)c3c(Nc4c(Cl)ccc5c4OCO5)ncnc3c2)CC1 [saracatinib]; assay: as above
In short: as §1

| Target | log2 fold change |
| --- | --- |
| ACSF3 (UniProt Q4G176) | inactive: 0.079 |
| ACAT1, A0A5F9ZHJ0 | inactive: 0.068 |
| AAMP (UniProt Q13685) | inactive: -0.002 |
| ACADVL isoform 3 (UniProt P49748) | inactive: 0.027 |
| ACSL1 (UniProt P33121) | inactive: 0 |
| ABCA3 (UniProt Q99758) | inactive: 0.009 |
| AAGAB (UniProt Q6PD74) | inactive: 0.168 |
| ACP2 (UniProt P11117) | inactive: 0.026 |
| ACACB (UniProt O00763) | inactive: -0.166 |
| AAR2 (UniProt Q9Y312) | inactive: 0.06 |
| ACP1 (UniProt P24666) | inactive: -0.031 |
| ACO2 (UniProt Q99798) | inactive: 0.005 |
| ACIN1 (UniProt Q9UKV3) | inactive: -0.027 |
| AARSD1 (UniProt Q9BTE6) | inactive: 0.008 |
| ADAMTS13 (UniProt Q76LX8) | inactive: 0.261 |
| ABHD11 (UniProt Q8NFV4) | inactive: -0.022 |
| ACTN4 (UniProt K7EJH8) | inactive: -0.05 |
| ABHD16A (UniProt O95870) | inactive: 0.01 |
| ACADM isoform 2 (UniProt P11310) | inactive: 0.031 |
| ABITRAM (UniProt Q9NX38) | inactive: 0.035 |
| AAK1 (UniProt Q2M2I8) | inactive: 0 |
| AARSD1 isoform 3 (UniProt Q9BTE6) | inactive: -0.009 |
| ACTBL2 (UniProt Q562R1) | inactive: -0.054 |
| ACTG1 (UniProt K7EM38) | inactive: -0.161 |
| ACTR1B (UniProt P42025) | inactive: 0.012 |
| AARS2 (UniProt Q5JTZ9) | inactive: 0 |
| ACSL5 isoform 3 (UniProt Q9ULC5) | inactive: 0.058 |
| ACSS1 (UniProt Q9NUB1) | inactive: -0.035 |
| ABRAXAS1 (UniProt Q6UWZ7) | inactive: 0.088 |
| ACAP2 (UniProt Q15057) | inactive: -0.02 |

compound: CN1CCN(c2nc(C3=C(c4c[nH]c5ccccc45)C(=O)NC3=O)c3ccccc3n2)CC1 [sotrastaurin]; assay: as above
In short: as §1

| Target | log2 fold change |
| --- | --- |
| ACSF3 (UniProt Q4G176) | inactive: 0.002 |
| ACAT1, A0A5F9ZHJ0 | inactive: 0.133 |
| AAMP (UniProt Q13685) | inactive: 0.006 |
| ACADVL isoform 3 (UniProt P49748) | inactive: 0.056 |
| ACSL1 (UniProt P33121) | inactive: 0.029 |
| ACOX3 (UniProt O15254) | inactive: -0.039 |
| ABCA3 (UniProt Q99758) | inactive: 0.121 |
| ACVR1 (UniProt Q04771) | inactive: -0.081 |
| AAGAB (UniProt Q6PD74) | inactive: 0.007 |
| ACP2 (UniProt P11117) | inactive: 0.022 |
| ABHD6 (UniProt Q9BV23) | inactive: 0.171 |
| ACACB (UniProt O00763) | inactive: -0.383 |
| AAR2 (UniProt Q9Y312) | inactive: -0.017 |
| ACP1 (UniProt P24666) | inactive: -0.054 |
| ACO2 (UniProt Q99798) | inactive: -0.017 |
| ACIN1 (UniProt Q9UKV3) | inactive: -0.01 |
| ADAMTS13 (UniProt Q76LX8) | inactive: 0.071 |
| ACTN4 (UniProt K7EJH8) | inactive: 0.009 |

| Target | log2 fold change |
| --- | --- |
| ABHD16A (UniProt O95870) | inactive: 0.214 |
| ACYP2 (UniProt P14621) | inactive: 0.126 |
| ACADM isoform 2 (UniProt P11310) | active: 0.274 |
| ABITRAM (UniProt Q9NX38) | inactive: -0.188 |
| AAK1 (UniProt Q2M2I8) | inactive: -0.196 |
| AARSD1 isoform 3 (UniProt Q9BTE6) | inactive: -0.113 |
| ACTBL2 (UniProt Q562R1) | inactive: 0.179 |
| ACTG1 (UniProt K7EM38) | inactive: 0.045 |
| ACTR1B (UniProt P42025) | inactive: -0.025 |
| AARS2 (UniProt Q5JTZ9) | inactive: -0.05 |
| A2ML1 (UniProt A8K2U0) | inactive: 0.347 |
| ACSL5 isoform 3 (UniProt Q9ULC5) | inactive: 0.078 |
| ACSS1 (UniProt Q9NUB1) | inactive: -0.033 |
| ABL1 isoform 2 (UniProt P00519) | inactive: 0.046 |
| ABRAXAS1 (UniProt Q6UWZ7) | inactive: 0.165 |
| ACAP2 (UniProt Q15057) | inactive: -0.029 |
| ACAA2 (UniProt K7ER88) | inactive: -0.037 |
